Test results published in EP2703005A1, “Inhibitors of alpha6 Integrin/E-Cadherin Complex” (Università Degli Studi Di Torino, priority 2012, dated 2014).
Results are given in words; binding and its absence hold for the method and conditions named. Binding seen in cells or lysates may run through a third protein. Some binding calls cover weakened binding; strength is not graded here. Sequences can lack the tags named with a protein.

The chains behind the UniProt entries cited, without tags or fusion partners. Residues count along the entry.
UniProt P68371: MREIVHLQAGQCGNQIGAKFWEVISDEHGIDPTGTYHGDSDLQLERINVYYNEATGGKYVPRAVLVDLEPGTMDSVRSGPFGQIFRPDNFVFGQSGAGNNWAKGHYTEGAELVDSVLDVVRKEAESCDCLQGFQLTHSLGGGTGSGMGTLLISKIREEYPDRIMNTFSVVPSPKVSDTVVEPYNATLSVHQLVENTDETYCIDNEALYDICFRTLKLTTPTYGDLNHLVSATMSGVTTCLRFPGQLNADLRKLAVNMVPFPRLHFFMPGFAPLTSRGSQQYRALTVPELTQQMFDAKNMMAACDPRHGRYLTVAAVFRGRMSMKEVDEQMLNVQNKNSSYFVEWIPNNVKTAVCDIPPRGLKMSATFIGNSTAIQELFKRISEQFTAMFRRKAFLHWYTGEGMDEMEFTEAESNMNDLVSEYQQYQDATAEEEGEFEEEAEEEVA
UniProt P68363: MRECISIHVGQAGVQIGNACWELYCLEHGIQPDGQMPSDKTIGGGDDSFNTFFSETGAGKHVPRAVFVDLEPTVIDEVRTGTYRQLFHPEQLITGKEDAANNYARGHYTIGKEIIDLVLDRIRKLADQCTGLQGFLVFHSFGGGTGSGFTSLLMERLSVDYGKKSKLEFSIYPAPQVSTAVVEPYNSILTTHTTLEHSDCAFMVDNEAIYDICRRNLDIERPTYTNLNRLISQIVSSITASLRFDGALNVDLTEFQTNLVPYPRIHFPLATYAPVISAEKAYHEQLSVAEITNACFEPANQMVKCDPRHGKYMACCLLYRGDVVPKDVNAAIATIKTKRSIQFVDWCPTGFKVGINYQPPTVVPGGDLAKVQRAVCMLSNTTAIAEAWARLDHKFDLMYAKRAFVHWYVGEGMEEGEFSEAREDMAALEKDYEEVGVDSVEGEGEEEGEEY
UniProt Q00610, residues 2-1675: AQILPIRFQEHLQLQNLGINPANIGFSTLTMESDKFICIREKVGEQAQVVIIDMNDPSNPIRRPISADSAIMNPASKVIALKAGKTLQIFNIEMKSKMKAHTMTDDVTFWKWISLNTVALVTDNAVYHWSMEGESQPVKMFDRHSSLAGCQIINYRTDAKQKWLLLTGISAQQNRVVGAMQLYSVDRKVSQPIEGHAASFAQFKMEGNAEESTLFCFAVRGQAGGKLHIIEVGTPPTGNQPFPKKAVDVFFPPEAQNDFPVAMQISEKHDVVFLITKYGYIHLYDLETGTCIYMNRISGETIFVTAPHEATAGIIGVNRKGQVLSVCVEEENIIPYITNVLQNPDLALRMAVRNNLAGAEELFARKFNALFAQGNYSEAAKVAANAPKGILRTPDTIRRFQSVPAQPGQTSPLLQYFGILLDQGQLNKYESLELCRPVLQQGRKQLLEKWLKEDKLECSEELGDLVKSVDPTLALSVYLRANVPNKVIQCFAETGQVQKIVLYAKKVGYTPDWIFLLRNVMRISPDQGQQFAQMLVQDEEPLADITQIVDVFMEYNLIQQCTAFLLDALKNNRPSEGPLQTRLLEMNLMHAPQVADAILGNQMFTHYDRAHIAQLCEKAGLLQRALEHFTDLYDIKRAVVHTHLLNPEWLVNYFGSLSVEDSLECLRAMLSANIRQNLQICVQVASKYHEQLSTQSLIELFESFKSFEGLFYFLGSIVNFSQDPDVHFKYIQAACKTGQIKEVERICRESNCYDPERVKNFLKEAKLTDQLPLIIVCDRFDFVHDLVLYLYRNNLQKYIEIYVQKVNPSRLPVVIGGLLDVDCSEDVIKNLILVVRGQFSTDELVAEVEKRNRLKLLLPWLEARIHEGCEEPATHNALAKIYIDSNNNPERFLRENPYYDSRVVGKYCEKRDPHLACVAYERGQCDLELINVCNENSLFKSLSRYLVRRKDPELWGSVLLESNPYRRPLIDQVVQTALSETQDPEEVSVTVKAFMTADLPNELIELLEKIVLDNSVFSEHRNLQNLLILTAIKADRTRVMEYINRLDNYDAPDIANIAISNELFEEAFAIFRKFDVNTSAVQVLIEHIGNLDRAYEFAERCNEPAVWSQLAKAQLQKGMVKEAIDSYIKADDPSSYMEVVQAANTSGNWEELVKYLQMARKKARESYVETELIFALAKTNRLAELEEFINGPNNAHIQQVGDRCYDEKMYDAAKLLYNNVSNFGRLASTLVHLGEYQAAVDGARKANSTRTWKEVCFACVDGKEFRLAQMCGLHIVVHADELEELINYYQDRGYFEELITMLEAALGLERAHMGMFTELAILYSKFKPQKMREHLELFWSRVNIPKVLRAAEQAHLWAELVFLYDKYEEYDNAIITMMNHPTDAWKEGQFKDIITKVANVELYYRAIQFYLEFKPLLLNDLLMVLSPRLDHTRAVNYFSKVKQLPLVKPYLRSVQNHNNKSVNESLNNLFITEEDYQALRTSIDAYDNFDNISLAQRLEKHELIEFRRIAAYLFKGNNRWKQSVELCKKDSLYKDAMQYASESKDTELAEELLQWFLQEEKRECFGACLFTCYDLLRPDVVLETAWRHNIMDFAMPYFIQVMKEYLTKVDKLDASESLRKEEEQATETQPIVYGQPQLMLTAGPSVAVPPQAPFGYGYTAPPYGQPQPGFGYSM
UniProt P35579, residues 2-1960: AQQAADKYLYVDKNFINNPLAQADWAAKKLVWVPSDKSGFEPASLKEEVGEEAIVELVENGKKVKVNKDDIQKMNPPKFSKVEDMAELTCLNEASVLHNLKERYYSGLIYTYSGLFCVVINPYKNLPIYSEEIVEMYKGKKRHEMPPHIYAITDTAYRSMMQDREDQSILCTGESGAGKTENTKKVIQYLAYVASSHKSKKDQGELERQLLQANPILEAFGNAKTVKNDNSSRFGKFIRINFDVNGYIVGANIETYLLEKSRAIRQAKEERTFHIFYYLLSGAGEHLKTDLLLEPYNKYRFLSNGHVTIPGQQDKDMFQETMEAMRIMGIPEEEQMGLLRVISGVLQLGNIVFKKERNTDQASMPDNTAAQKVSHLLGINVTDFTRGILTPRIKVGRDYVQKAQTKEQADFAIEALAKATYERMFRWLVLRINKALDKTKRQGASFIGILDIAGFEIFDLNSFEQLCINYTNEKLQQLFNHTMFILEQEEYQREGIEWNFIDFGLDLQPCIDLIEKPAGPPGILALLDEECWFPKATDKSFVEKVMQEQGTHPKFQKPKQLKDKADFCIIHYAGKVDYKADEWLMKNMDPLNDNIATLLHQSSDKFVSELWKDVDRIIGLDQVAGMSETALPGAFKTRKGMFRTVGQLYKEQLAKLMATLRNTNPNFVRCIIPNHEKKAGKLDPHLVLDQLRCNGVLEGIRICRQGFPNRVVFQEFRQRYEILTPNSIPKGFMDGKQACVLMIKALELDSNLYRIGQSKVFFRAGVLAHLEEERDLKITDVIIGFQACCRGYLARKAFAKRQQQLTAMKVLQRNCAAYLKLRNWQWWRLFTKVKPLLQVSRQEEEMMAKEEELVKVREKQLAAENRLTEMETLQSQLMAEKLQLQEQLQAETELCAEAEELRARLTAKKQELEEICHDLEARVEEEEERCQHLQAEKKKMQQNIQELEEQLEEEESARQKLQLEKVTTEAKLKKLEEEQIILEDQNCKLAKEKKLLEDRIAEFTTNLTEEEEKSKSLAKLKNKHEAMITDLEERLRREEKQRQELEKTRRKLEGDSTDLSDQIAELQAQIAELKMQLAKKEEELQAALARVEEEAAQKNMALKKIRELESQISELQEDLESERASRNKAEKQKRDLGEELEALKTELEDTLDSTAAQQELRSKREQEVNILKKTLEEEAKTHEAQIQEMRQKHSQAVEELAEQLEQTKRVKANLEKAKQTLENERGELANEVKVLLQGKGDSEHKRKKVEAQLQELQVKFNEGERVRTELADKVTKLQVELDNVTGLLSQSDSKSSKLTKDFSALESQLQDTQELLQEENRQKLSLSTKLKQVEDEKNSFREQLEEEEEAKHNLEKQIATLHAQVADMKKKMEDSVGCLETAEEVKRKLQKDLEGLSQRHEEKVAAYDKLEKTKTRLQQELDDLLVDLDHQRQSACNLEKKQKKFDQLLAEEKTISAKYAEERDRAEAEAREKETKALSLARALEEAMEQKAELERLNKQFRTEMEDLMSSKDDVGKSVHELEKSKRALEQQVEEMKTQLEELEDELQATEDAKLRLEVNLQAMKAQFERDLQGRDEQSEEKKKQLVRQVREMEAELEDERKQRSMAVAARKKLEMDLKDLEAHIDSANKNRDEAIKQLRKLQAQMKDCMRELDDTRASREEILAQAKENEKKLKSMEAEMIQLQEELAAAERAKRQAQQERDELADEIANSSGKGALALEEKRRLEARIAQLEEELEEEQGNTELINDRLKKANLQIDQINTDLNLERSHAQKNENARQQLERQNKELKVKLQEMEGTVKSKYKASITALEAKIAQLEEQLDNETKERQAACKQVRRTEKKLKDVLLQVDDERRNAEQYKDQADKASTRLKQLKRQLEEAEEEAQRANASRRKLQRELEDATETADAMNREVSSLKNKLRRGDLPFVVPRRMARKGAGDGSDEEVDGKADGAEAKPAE

How the values were obtained:
[1] = target: tubulin β-2 chain (human) (UniProt P68371); assay: GST pull-down from NCI-H630 lysate (HepG2 lysate as control), LC-MS/MS; MASCOT score 84
[2] = target: T1, voltage-dependent channel (human) (UniProt P45880); assay: GST pull-down from NCI-H630 lysate (HepG2 lysate as control), LC-MS/MS; MASCOT score 111
T1 sequence (looked up): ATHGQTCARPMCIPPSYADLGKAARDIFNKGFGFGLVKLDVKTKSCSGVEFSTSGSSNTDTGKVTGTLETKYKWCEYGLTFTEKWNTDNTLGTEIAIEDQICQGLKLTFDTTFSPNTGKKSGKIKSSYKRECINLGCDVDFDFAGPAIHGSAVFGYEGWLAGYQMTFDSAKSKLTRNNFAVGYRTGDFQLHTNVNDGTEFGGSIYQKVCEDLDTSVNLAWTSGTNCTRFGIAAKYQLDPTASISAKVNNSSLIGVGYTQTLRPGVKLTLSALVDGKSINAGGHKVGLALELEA

cingulin (human) = target: T2, cingulin (human) (UniProt Q9P2M7); assay: GST pull-down from NCI-H630 lysate (HepG2 lysate as control), LC-MS/MS; MASCOT score 224
T2 sequence (looked up): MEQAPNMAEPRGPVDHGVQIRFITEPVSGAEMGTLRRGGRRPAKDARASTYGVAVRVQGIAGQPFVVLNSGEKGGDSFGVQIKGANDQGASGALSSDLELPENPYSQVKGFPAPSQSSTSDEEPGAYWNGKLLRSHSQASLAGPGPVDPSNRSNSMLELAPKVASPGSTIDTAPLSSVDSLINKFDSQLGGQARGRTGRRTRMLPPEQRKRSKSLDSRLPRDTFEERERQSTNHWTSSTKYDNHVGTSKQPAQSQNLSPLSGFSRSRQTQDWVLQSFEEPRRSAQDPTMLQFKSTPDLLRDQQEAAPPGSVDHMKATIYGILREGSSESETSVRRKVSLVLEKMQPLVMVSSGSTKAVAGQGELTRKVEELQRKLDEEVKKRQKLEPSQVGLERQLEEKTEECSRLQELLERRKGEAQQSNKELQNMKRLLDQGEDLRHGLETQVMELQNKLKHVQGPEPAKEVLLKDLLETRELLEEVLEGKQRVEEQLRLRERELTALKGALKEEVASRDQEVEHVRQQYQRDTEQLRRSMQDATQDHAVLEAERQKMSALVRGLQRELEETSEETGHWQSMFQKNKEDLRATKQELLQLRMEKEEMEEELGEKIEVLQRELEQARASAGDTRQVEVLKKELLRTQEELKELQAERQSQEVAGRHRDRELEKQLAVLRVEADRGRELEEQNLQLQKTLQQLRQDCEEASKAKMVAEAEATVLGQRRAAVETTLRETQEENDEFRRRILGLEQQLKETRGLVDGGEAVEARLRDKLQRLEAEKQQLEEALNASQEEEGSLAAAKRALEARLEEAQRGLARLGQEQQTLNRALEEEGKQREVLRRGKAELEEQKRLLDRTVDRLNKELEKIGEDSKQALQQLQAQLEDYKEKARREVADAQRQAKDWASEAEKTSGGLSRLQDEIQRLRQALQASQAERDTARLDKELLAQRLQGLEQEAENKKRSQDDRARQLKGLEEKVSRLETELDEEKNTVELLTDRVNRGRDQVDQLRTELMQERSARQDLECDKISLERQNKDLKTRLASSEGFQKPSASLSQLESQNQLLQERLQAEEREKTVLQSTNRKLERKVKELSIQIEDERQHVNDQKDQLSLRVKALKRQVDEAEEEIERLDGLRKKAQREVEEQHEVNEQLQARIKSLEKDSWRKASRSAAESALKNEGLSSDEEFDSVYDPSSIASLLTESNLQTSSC

α-tubulin (human) = α-tubulin (human) (UniProt P68363); assay: GST pull-down from NCI-H630 lysate (HepG2 lysate as control), LC-MS/MS; MASCOT score 258
tropomodulin-3 (human) = target: T3, tropomodulin-3 (human) (UniProt Q9NYL9); assay: GST pull-down from NCI-H630 lysate (HepG2 lysate as control), LC-MS/MS; MASCOT score 758
T3 sequence (looked up): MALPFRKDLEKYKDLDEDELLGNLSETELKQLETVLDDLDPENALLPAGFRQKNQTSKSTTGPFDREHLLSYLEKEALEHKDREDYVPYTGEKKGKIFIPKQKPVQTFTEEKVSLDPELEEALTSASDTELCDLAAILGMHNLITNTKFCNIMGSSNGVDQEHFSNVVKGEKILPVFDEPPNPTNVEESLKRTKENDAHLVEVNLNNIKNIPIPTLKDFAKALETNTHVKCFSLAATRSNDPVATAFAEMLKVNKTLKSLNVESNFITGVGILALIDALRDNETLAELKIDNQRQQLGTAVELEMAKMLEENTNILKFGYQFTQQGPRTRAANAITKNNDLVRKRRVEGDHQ

[3] = target: clathrin heavy chain 1 (human) (UniProt Q00610); assay: GST pull-down from NCI-H630 lysate (HepG2 lysate as control), LC-MS/MS; MASCOT score 1556
myosin-9 (human) = myosin-9 (human) (UniProt P35579); assay: GST pull-down from NCI-H630 lysate (HepG2 lysate as control), LC-MS/MS; MASCOT score 4750

Measured: binding

CGIYRLRSC (peptide, not shown: a dimerising Fc or GST) […-GST]
binds: all assays above
